Laboratory results published in US11225605B2, “Polymerizable liquid crystal compound, method for producing polymerizable liquid crystal compound, polymerizable liquid crystal composition, optically anisotropic film, optical film, polarizing plate, and image display device” (FUJIFILM Corporation, priority 2017, dated 2022).
Entries after “also recorded” stand apart in the source; their conditions may differ.

Assay: Formation of optically anisotropic film and retardation measurement (KOBRA-21ADH)
Conditions: for Re (450)/ Re (550): optical film; for Re (450): retardation of optical film at wavelength 450 nm; for Re (550): retardation of optical film at wavelength 550 nm; for Formation of optical film / optically anisotropic film: result in words
Method: A polymerizable composition (a coating liquid for an optically anisotropic film) having the following composition was prepared and applied through spin coating onto on a glass substrate having a polyimide alignment film (SE-150 manufactured by Nissan Chemical Industries, Ltd.) which had been subjected to a rubbing treatment. The coated film was subjected to an alignment treatment at a temperature shown in Table 5 below to form a liquid crystal layer. Thereafter, the liquid crystal layer was cooled to an exposure temperature, described in Table 5 below and subjected to alignment fixation by ultraviolet irradiation of 1,000 mJ/cm^2 to form an optically anisotropic film, thereby obtaining an optical film for wavelength dispersion measurement.
With regard to the prepared optical film, a retardation value (Re (450)) at a wavelength of 450 nm and a retardation value (Re (550)) at a wavelength of 550 nm were measured using an automatic birefringence meter (KOBRA-21ADH, manufactured by Oji Scientific Instruments Co., Ltd.), and Re (450)/Re (550) was calculated.

Structure (SMILES) | Re (450)/ Re (550) | Re (450) | Re (550) | Formation of optical film / optically anisotropic film (listed as Comparative Example 3) | Formation of optical film / optically anisotropic film (listed as Comparative Example 6)
C=CC(=O)OCC(C)(C)COC(=O)CCC(=O)OCCc1ccc(OC(=O)C2CCC(C(=O)Oc3ccc(OC(=O)C4CCC(C5CCC(CC)CC5)CC4)c4c3SC(=C(C#N)C#N)S4)CC2)cc1 (centres unmarked) [Compound A-1] | 0.71 | 102 | 143 | – | –
C=CC(=O)OCC(C)(C)COC(=O)CCC(=O)OCCc1ccc(OC(=O)C2CCC(C(=O)Oc3c(C)cc(OC(=O)C4CCC(C5CCC(CC)CC5)CC4)c4c3SC(=C(C#N)C#N)S4)CC2)cc1 (centres unmarked) [Compound B-1] | 0.73 | 96 | 132 | – | –
C=CC(=O)OCC(C)(C)COC(=O)CCC(=O)OCCc1ccc(OC(=O)C2CCC(C(=O)Oc3cc(C(C)(C)C)c(OC(=O)C4CCC(C(=O)Oc5ccc(CCOC(=O)CCC(=O)OCC(C)(C)COC(=O)C=C)cc5)CC4)c4c3SC(=C(C#N)C#N)S4)CC2)cc1 (centres unmarked) [Compound C-1] | – | – | – | alignment failure; also recorded: not possible to form an optically anisotropic film | –
C=CC(=O)OCCOC(=O)CCC(=O)OCCc1ccc(OC(=O)C2CCC(C(=O)Oc3cc(C(C)(C)C)c(OC(=O)C4CCC(C(=O)Oc5ccc(CCOC(=O)CCC(=O)OCCOC(=O)C=C)cc5)CC4)c4c3SC(=C(C#N)C#N)S4)CC2)cc1 [Compound D-1] | 0.85 | 73 | 86 | – | –
C=CC(=O)OCCCCCCOc1ccc(OC(=O)C2CCC(C(=O)Oc3cc(C(C)(C)C)c(OC(=O)C4CCC(C(=O)Oc5ccc(OCCCCCCOC(=O)C=C)cc5)CC4)c4c3SC(=C(C#N)C#N)S4)CC2)cc1 (centres unmarked) [Compound E-1] | 0.85 | 123 | 145 | – | –
CCC1CCC(C2CCC(C(=O)Oc3cc(C(C)(C)C)c(OC(=O)C4CCC(C5CCC(CC)CC5)CC4)c4c3SC(=C(C#N)C#N)S4)CC2)CC1 (centres unmarked) [Compound I-1f] | – | – | – | – | crystals precipitated; also recorded: not possible to form an optically anisotropic film
C=CC(=O)OCCOC(=O)CCC(=O)OCCc1ccc(OC(=O)C2CCC(C(=O)Oc3c(C(C)(C)C)cc(OC(=O)C4CCC(C5CCC(CC)CC5)CC4)c4c3SC(=C(C#N)C#N)S4)CC2)cc1 (centres unmarked) [Compound I-2] | 0.75 | 91 | 121 | – | –
C=CC(=O)OCCCCCCOc1ccc(OC(=O)C2CCC(C(=O)Oc3c(C(C)(C)C)cc(OC(=O)C4CCC(C5CCC(CC)CC5)CC4)c4c3SC(=C(C#N)C#N)S4)CC2)cc1 (centres unmarked) [Compound I-3] | 0.77 | 110 | 143 | – | –
C=CC(=O)OCC(C)(C)COC(=O)CCC(=O)OCCc1ccc(OC(=O)C2CCC(C(=O)Oc3cc(C(C)(C)C)c(OC(=O)C4CCC(C5CCC(CC)CC5)CC4)c4c3SC(=C(C#N)C#N)S4)CC2)cc1 (centres unmarked) [Compound I-13] | 0.74 | 112 | 151 | – | –
